Laboratory results taken from PubChem BioAssay AID638 (SRMLSC, 2007).
In all, about 1,300 compounds went through this assay and about 65 (5%) were called active.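 Rule for the calls: active = growth inhibition reaching a set limit at one or more tested doses; inactive = the rest.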 Some of the results follow. Results with a measured potency or affinity are listed apart.

assay: wild-type E. coli BW25113 antibacterial activity – OD615, dose response (AID 638); settings: at 100 µM (top of the series) unless noted
Outline: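 Assay system: E. coli BW25113 wild type. Doses: compound concentration series. Timing: 20 h compound exposure, 37 °C. Technique: OD615 absorbance. Medium: LB broth containing kanamycin at 50 µg/mL. Benchmarks: chloramphenicol at 30 µM final as inhibition control. Measure: IC50 from 4-parameter logistic, bounds fixed 0–100%.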

Growth inhibition, inactive:
CCSc1nnc(NC(=O)c2cccc(OCc3c(C)noc3C)c2)s1 6.64%
Cc1cccc(N2CCN(C(=O)c3cn(C)c(=O)c4c3c3ccccc3n4C)CC2)c1C -2.17%
CCN(CC)c1ccc(-c2nn3c(-c4n[nH]c5c4CCC5)nnc3s2)cc1 5.16%
OCCN1CCN(c2nc(-c3ccccc3)c3cc(Cl)ccc3n2)CC1 2.45%
Cc1ccccc1Cn1nc(C)c(NC(=O)c2noc3c2CC(C(C)(C)C)CC3)c1C (configuration not stated) -6.59%
N#Cc1c(/N=C/c2ccco2)oc(-c2ccccc2)c1-c1ccccc1 2.06%
O=C1CCCC2=C1C(c1cccs1)n1nc(SCc3ccccc3)nc1N2 (configuration not stated) 0.4%
CCc1cc2c(N3CCN(c4ccccc4)CC3)ncnc2s1 8.6%
c1ccc(-c2csc(N3CCN(c4ccccn4)CC3)n2)cc1 -6.86%
Cc1ccc2cc(CN(Cc3ccc(F)cc3)Cc3nnnn3C3CCCC3)c(=O)[nH]c2c1 -4.23%
Clc1ccc(Cn2ncc3c(NCc4ccco4)ncnc32)c(Cl)c1 13.6%
Cc1ccc(S(=O)(=O)Cn2nnnc2CN2CCCC3(CCCCC3)C2)cc1 -8.84%
COC(=O)c1cccc(-n2nnnc2SCC(=O)Nc2nc3c(s2)CCCC3)c1 -0.91%
COC(=O)c1sc(N2C(=O)C(O)=C(C(=O)c3ccc(C)o3)C2c2ccc(F)cc2)nc1C (configuration not stated) -4.88%
COc1ccc(Nc2nc(N3CCCC3)c3ccccc3n2)cc1 11.6%
CCOC(=O)c1c(NC(=O)CSc2nnc(C)c(=O)[nH]2)sc2c1CCC2 -1.04%
Cc1[nH]n2c(=O)c3c(nc2c1-c1ccc(Cl)cc1)CCC3 -6.61%
Cc1cccc2cc(CN(Cc3ccco3)C(=O)NC3CCCCC3)c(=O)[nH]c12 -1.82%
CCCCCn1c(N2CCC(Cc3ccccc3)CC2)nc2c1c(=O)[nH]c(=O)n2C -11.3%
Fc1cccc2sc(Nc3nnc(-c4ccco4)o3)nc12 -14%
CC1CCC2C(C1)c1sc(=O)[nH]c1SC2(C)C (configuration not stated) 15.2%
CN(C)c1ccc(C2C=C(c3ccc(Cl)cc3OC(F)F)Nc3ncnn32)cc1 (configuration not stated) -1.91%
Cc1ccccc1OCCCCc1c(C)n[nH]c1C 5.3%
O=C(c1ccc(COc2ccc3c(c2)CCC3)o1)N1CCN(c2ccccc2)CC1 2.85%
CCCCOc1ccc(S(=O)(=O)Nc2cc(OC)ccc2OC)cc1 -1.85%
CC(C)OCCCNc1ncnc2c1[nH]c1ccc(F)cc12 9.62%
CS(=O)c1nc(-c2ccc(Br)cc2)cc(-c2ccccc2)c1C#N (configuration not stated) -3.92%
O=C(Nc1nc2ccccc2s1)C1CCCN1S(=O)(=O)c1ccc(Cl)cc1 (configuration not stated) -7.08%
CCOc1ccccc1N1CCN(C(=O)Nc2ccc(F)c(Cl)c2)CC1 -9.1%
CCOC(=O)c1[nH]c2ccc(F)cc2c1NC(=O)CN1CCN(C/C=C/c2ccccc2)CC1 -5.2%
CN(c1ccccc1)c1nc(N2CCCC2)nc(-n2ccnc2)n1 5.65%
CC(C)Sc1nc(NCc2ccco2)c2c3c(sc2n1)COC(C)(C)C3 -9.23%
COc1ccccc1N1CCN(C(=O)c2oc3cc(C)c(C)cc3c2C)CC1 -0.05%
O=C(CN(Cc1ccc2c(c1)OCO2)C(=O)CSc1nc2ccccc2o1)NC1CCCCC1 -6.97%
Cc1ccc(NC(=O)N2CCC(c3nc4c(nnn4Cc4cccc(Cl)c4)c(=O)[nH]3)CC2)cc1 -0.39%
CCOC(=O)C1CCCN(c2ncnc3c2cnn3-c2ccc(Cl)cc2)C1 (configuration not stated) -11.7%
O=c1c2ccccc2n(Cc2ccc(F)cc2)c(=O)n1C1CCCC1 -11%
c1coc(CNc2nc(N3CCCCC3)nc3ccccc23)c1 19.5%
Cc1ccc2c(c1)[nH]c1c(N3CCN(Cc4ccccc4)CC3)ncnc12 4.5%
CCn1c2ccccc2c2cc(C3C(C#N)=C(N)Oc4n[nH]c(COC)c43)ccc21 (configuration not stated) 10.3%
COc1ccc(-c2csc(NCc3ccco3)n2)cc1C -5.93%
COc1ccc(C(=O)Nc2nc(-c3cccs3)cs2)cc1 5.17%
CC1CCCN(c2ccc(C(=O)NCCc3ccccc3)cn2)C1 (configuration not stated) -9.36%
Clc1ccc(OCCCc2nc(-c3cccnc3)no2)c(Cl)c1 14.3%
Brc1ccc(CSc2nnc(-c3ccccn3)n2Cc2ccco2)cc1 3.24%
CN(c1ccccc1)C(c1ccc(F)cc1)c1nnnn1C1CCCC1 (configuration not stated) -5.82%
CC(C)C[C@H](NC(=O)OC(C)(C)C)c1nnc(SCc2cccc(F)c2)o1 -2.46%
CCOc1ccc(C(=O)N2CCN(c3cccc(C)c3C)CC2)cc1 3.01%
N#CC1=C(SCC(=O)c2cc3ccccc3oc2=O)NC(=O)C(C#N)C12CCCC2 (configuration not stated) 14.3%
CCc1ccccc1N(C)C(=O)CCc1nc(-c2ccc(C)cc2)no1 -4.92%
CCCCOC(=O)CSc1nnc(-c2ccc(Cl)cc2Cl)o1 1.1%
CCOC(=O)c1cc2sc(C)cc2n1C(C)C(=O)OCC (configuration not stated) 4.08%
C=C(C)COc1ccc(-c2[nH]ncc2Oc2cccc(OC)c2)c(O)c1 14.1%
CCCn1c2ccccc2c2nc3ccccc3nc21 -4.27%
CCOC(=O)c1c(-c2ccccc2)nnn1-c1nc(OCC)nc(N2CCCCC2)n1 -1.79%
CC(C)c1ccc(-c2noc(C3CCCN(C(=O)c4ccc(F)cc4F)C3)n2)cc1 (configuration not stated) 6.32%
CCC1(C)Cc2ccccc2-c2nc3n(c(=O)c21)CCCCC3 (configuration not stated) -1.35%
CN(Cc1ccccc1)c1ncnc2c1cnn2-c1ccccc1 -7.57%
CC(O)c1c(OCc2ccccc2)ncnc1OCc1ccccc1 (configuration not stated) 13.2%
Cn1cccc1C(=O)Nc1nc(-c2ccccn2)cs1 15%
O=C(CSc1nnnn1C1CCCCC1)Nc1cccc(NC(=O)c2ccco2)c1 3.75%
O=S(=O)(c1ccccc1)c1nc(-c2ccco2)oc1N1CCCCCC1 4.36%
CCOC(=O)Cc1c(C)nc2c(-c3ccc(Cl)cc3)c[nH]n2c1=O -6.48%
CCCCCn1c(CN2CCN(c3cccc(Cl)c3)CC2)nc2c1c(=O)n(C)c(=O)n2C 9.09%
O=C(Nc1ccc(N2CCN(C(=O)c3ccco3)CC2)c(Cl)c1)c1cccs1 -1.45%
CCC(C)(C)n1nnnc1CN(Cc1ccc(Cl)cc1)Cc1ccco1 -6.72%
OCCN(CCO)c1nc(N2CCCCC2)c2nc(N(CCO)CCO)nc(N3CCCCC3)c2n1 -1.01%
O=C1c2ccccc2C(=O)N1CCC(c1ccc(F)cc1)c1ccco1 (configuration not stated) 1.8%
COc1ccc(-c2csc(N(CC3CCCO3)C(=O)c3ccco3)n2)cc1 (configuration not stated) 1.43%
O=C(Nc1cnn(Cc2ccc(Cl)cc2Cl)c1)c1noc2c1CCCC2 -2.89%
COc1cc(-c2nnc(SCc3ccccc3Cl)o2)cc(OC)c1OC 7.37%
COc1cccc(-c2cc(C(=O)N3C(C)CCCC3C)no2)c1 (configuration not stated) 1.45%
C(=C\c1ccccc1)/CSc1nnc(-c2ccccn2)n1Cc1ccco1 9.17%
Cc1ccc2[nH]c(=O)c(CN(Cc3ccc4c(c3)OCO4)Cc3nnnn3C3CCCC3)cc2c1 3.62%
Cc1nc(N2CCN(Cc3ccccc3)CC2)nc2c1C(=O)CC(c1ccco1)C2 (configuration not stated) 5.25%
CCNc1nc(NC(C)C)nc(N(C#N)CCOc2ccc(Cl)cc2Cl)n1 -15.4%
O=C(CSc1nc2ccccc2o1)Nc1ccccc1N1CCCCCC1 1.71%
CCN(CCNC(=O)C1CCN(Cc2nc(-c3cccc(Cl)c3)oc2C)CC1)c1ccccc1 9.5%
Cc1ccc2c3c1C1(C(=O)N3C(C)(C)CC2C)C(C#N)=C(N)Oc2cc(O)ccc21 (configuration not stated) 15.4%
Cc1cccc(-n2ncc3c(N4CCC(C)CC4)ncnc32)c1 -9.29%
COC(=O)c1sccc1NC(=O)c1cc2c(s1)CCCC2 2.79%
COc1nc(N(c2ccccc2)c2ccccc2)nc(-n2ccnc2)n1 12.7%
O=C(O)CCCC(=O)N1CCc2cc(S(=O)(=O)N3CCc4ccccc43)ccc21 -7.98%
COc1ccc(CN(Cc2cc3cc4c(cc3[nH]c2=O)OCO4)C(=O)NC2CCCCC2)cc1 -8.18%
CN(C)c1ccc(-c2nn3c(-c4ccncc4)nnc3s2)cc1 -6.08%
Cc1cc(C)c(C#N)c(N2CCN(CCOc3ccc(Cl)cc3)CC2)n1 7.86%
CN(c1ccccc1C(=O)Nc1ccc(S(=O)(=O)N2CCCCC2)cc1)S(C)(=O)=O -1.44%
Cc1oc(C(C)(C)C)cc1C(=O)Nc1ccc2c(c1)OCCO2 -3%
Cc1ccc(SCC(=O)N(Cc2nc(-c3ccccc3)no2)C(C)C)cc1 -2.8%
O=S(=O)(Nc1nc2ccccc2nc1NCc1ccco1)c1ccc(Cl)cc1 15.4%
CCOC(=O)c1c(C)[nH]c(C)c1C(=O)Cn1nnc(-c2ccccc2C)n1 0.22%
CCOC(=O)CSC1=C(C#N)C(c2ccco2)C(C(=O)Nc2cccc(C(F)(F)F)c2)=C(C)N1 (configuration not stated) -10.2%

Quoted at random: 3 compounds from above.
Growth inhibition, inactive:
O=C1CCCC2=C1C(c1cccs1)n1nc(SCc3ccccc3)nc1N2 (configuration not stated) 0.4%
COc1nc(N(c2ccccc2)c2ccccc2)nc(-n2ccnc2)n1 12.7%
CCOC(=O)C1CCCN(c2ncnc3c2cnn3-c2ccc(Cl)cc2)C1 (configuration not stated) -11.7%
